{"source": "paper PMC8386835", "target": "T1, MTL5 (Metallothionein-like 5) (mouse (endogenous in spermatocytes)) (UniProt Q9WTJ6)", "T1 sequence": "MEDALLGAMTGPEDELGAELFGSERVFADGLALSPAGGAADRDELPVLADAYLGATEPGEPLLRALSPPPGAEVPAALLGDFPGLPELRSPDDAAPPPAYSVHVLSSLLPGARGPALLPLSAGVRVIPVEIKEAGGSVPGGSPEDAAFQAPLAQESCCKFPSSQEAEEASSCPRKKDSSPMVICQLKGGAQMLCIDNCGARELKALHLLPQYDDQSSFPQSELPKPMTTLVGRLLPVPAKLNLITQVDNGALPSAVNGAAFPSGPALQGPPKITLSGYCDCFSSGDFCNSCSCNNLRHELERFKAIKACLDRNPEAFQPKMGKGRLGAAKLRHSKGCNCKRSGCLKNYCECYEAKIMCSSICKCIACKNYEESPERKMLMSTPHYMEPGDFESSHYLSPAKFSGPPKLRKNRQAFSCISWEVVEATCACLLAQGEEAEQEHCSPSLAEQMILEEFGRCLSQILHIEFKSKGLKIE", "test": "affinity purification with mass spectrometry; immunoprecipitation with anti-MTL5 C-terminal antibody (epitope 221-475) and Protein A/G agarose from pachytene and diplotene spermatocytes of 10-week-old wild-type mice, RIPA buffer, overnight at 4°C; rabbit IgG and knockout as controls", "note": "These are yes or no findings as the source states them, for the method shown. Binding seen in cells or lysates may run through a third protein. Here binding means that the protein was enriched with, or labelled near, the bait; the list need not be complete. No binding means not detected with the bait.", "data": [{"binder": "LIN54 (protein, UniProt Q571G4 1-749) MEVVPAEVNSLLPDDIMDTAITLVDEDSIEAVIVSSPIPMETELEEIVNINSTGDSTATPISTEPITVYSNHTNQVAVNTTVSKADSNTTVKPAFPSGLQKLGAQTPVTISANQIILNKVSQTSDLKLGNQTLKPDGQKLILTTLGKSGSPIVLALPHSQLPQAQKVTAQAQPGDAKLPPQQIKVVTIGGRPEVKPVIGVSALTPGSQLINTTTQPSVLQTQQLKTVQIAKKPRTPTSGPVITKLIFAKPINSKAVTGQTTQASPPVVTGRVLSQSTPGTPSKTITISESGVIGSTLNSTTQTPNKIAISPLKSPNKTVKSAVQTITVGGMSTSQFKTIIPLATAPNVQQIQVPGSKFHYVRLVTATTASSSAQPVSQSPSVNTQPLQQAKPVVVNTTPVRMSVPFVQAQAVKQVVPKPINSTSQIVTTSQPQQRLIMPATPLPQIQPNLTNLPPGTVLAPAPGTGNVGYAVLPAQYVTQLQQSSYVSIASNSNFTGTSGIQTQARLPFNGIIPSESTSRPRKPCNCTKSLCLKLYCDCFANGEFCNNCNCTNCYNNLEHENERQKAIKACLDRNPEAFKPKIGKGKEGESDRRHSKGCNCKRSGCLKNYCECYEAKIMCSSICKCIGCKNFEESPERKTLMHLADAAEVRVQQQTAAKTKLSSQISDLLTRPTPALNSAGGKLPFTFVTKEVAEATCNCLLAQAEQADKKGKSKAAAERMILEEFGRCLMSVINSAGKAKSDPCAMHC", "values": [{"measurement": "binding", "result": "no binding"}]}]}
